Binding data for 3 molecules are collected here from PMC8545785.

Amino acid sequences for entries named in this document (tags omitted).
UniProt P42771: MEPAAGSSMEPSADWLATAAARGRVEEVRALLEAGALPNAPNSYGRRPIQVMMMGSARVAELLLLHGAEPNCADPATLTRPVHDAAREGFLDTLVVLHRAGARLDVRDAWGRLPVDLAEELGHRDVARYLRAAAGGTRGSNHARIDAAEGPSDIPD

Test [1] deals with Flag-p16 (human), full length, from GFP-labeled overexpression adenovirus (human) (UniProt P42771). Kind of test: co-IP; 293T cells with Flag-p16 adenovirus and His-tagged occludin plasmids; cell extracts precipitated with anti-Flag antibody, blots with anti-His or anti-Flag.
Test [2] has as its target T1, p16^INK4a (mouse, endogenous) (mouse (endogenous in ileum)) (UniProt P51480).
T1 sequence: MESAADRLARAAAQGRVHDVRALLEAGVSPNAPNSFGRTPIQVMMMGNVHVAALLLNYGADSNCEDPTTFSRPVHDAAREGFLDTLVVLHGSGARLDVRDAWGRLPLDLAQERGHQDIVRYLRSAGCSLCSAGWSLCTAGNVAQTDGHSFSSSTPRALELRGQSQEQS
Put plainly: proximity ligation; Duolink PLA on paraffin sections of ileum from Bmi-1-/- mice with antibodies against p16 and occludin.

Test [3] concerns the target T1, p16^INK4a (mouse, endogenous) (mouse (endogenous in ileum)). Kind of test: co-IP; total protein from ileum / intestinal epithelium of WT and Bmi-1-/- mice; Pierce Co-IP kit; anti-p16 or anti-occludin antibody overnight, anti-IgG as control; Western blots for p16 and occludin.

Results are given in words; binding and its absence hold for the method and conditions named. Binding seen in cells or lysates may run through a third protein. Some results given as binding are weak or reduced against the parent protein; the word gives no strength. For some of these results: Tags and fused reporters may be left off the sequences shown.

B1: His-tagged full-length human occludin (protein, UniProt Q16625 1-522)
chain: MSSRPLESPPPYRPDEFKPNHYAPSNDIYGGEMHVRPMLSQPAYSFYPEDEILHFYKWTSPPGVIRILSMLIIVMCIAIFACVASTLAWDRGYGTSLLGGSVGYPYGGSGFGSYGSGYGYGYGYGYGYGGYTDPRAAKGFMLAMAAFCFIAALVIFVTSVIRSEMSRTRRYYLSVIIVSAILGIMVFIATIVYIMGVNPTAQSSGSLYGSQIYALCNQFYTPAATGLYVDQYLYHYCVVDPQEAIAIVLGFMIIVAFALIIFFAVKTRRKMDRYDKSNILWDKEHIYDEQPPNVEEWVKNVSAGTQDVPSPPSDYVERVDSPMAYSSNGKVNDKRFYPESSYKSTPVPEVVQELPLTSPVDDFRQPRYSSGGNFETPSKRAPAKGRAGRSKRTEQDHYETDYTTGGESCDELEEDWIREYPPITSDQQRQLYKRNFDTGLQEYKSLQSELDEINKELSRLDKELDDYREESEEYMAAADEYNRLKQVKGSADYKSKKNHCKQLKSKLSHIKKMVGDYDRQKT
Turning to B1, in test [1], the binding result was “binds”.

B2: His-tagged human occludin 266–522–truncated fragment (domain or fragment, UniProt Q16625 266-522)
chain: KTRRKMDRYDKSNILWDKEHIYDEQPPNVEEWVKNVSAGTQDVPSPPSDYVERVDSPMAYSSNGKVNDKRFYPESSYKSTPVPEVVQELPLTSPVDDFRQPRYSSGGNFETPSKRAPAKGRAGRSKRTEQDHYETDYTTGGESCDELEEDWIREYPPITSDQQRQLYKRNFDTGLQEYKSLQSELDEINKELSRLDKELDDYREESEEYMAAADEYNRLKQVKGSADYKSKKNHCKQLKSKLSHIKKMVGDYDRQKT
Turning to B2, the binding entry in test [1] is reported as “no binding”.

B3: occludin (mouse, endogenous) (protein, UniProt Q61146 1-521)
chain: MSVRPFESPPPYRPDEFKPNHYAPSNDMYGGEMHVRPMLSQPAYSFYPEDEILHFYKWTSPPGVIRILSMLIIVMCIAIFACVASTLAWDRGYGTGLFGGSLNYPYSGFGYGGGYGGGYGGYGYGYGGYTDPRAAKGFLLAMAAFCFIASLVIFVTSVIRSGMSRTRRYYLIVIIVSAILGIMVFIATIVYIMGVNPTAQASGSMYGSQIYMICNQFYTPGGTGLYVDQYLYHYCVVDPQEAIAIVLGFMIIVAFALIIFFAVKTRRKMDRYDKSNILWDKEHIYDEQPPNVEEWVKNVSAGTQDMPPPPSDYAERVDSPMAYSSNGKVNGKRSYPESFYKSTPLVPEVAQEIPLTLSVDDFRQPRYSSNGNLETPSKRAPTKGKAGKGKRTDPDHYETDYTTGGESCEELEEDWVREYPPITSDQQRQLYKRNFDAGLQEYKSLQAELDDVNKELSRLDKELDDYREESEEYMAAADEYNRLKQVKGSADYKSKRNYCKQLKSKLSHIKRMVGDYDRRKP
Consider B3, for which the binding entry in test [2] and in test [3] was “binds” throughout.
